Source: PubChem BioAssay AID743121 (NCATS, 2013)
The deposit covers about 26,000 reagents; this is an unselected part. 167 of all reagents (0.63%) were called active. 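Calls are per gene from RSA p-values that are not deposited; an individual active-marked siRNA can sensitise only weakly.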 Reagents against one gene are numbered here. Not all columns of the deposit are shown. No sequences are given here.

Screen: 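Genes whose silencing strengthens cell killing by camptothecin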 (primary screen)
Cells: MDA-MB-231 cells, a human breast cancer line
Reagent: single siRNA against human genes, 20 nM siRNA (0.8 pmol per well)
Time to read-out: 120 h (drug added 48 h after transfection, read 72 h later)
Treatment: camptothecin 20 nM (about EC30) for 72 h; vehicle 0.1% DMSO in parallel plates
Read-out: 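CellTiter-Glo ATP signal, scaled to control siRNA as percent viability; sensitisation given as log2 of untreated divided by camptothecin-treated viability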
Scale: log2 vehicle/camptothecin viability: higher = stronger sensitisation to camptothecin
Hit rule: 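Each gene scored by redundant siRNA activity (RSA) over its individual siRNA ratios; a gene is called active at p < 0.001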

log2 vehicle/camptothecin viability, by gene and reagent
CHKB: #1 -0.00399 inactive; #2 0.28 inactive; #3 -0.239 inactive; #4 -0.207 inactive; #5 -0.125 inactive; #6 -0.111 inactive; #7 -0.0198 inactive; #8 0.515 inactive
CLCF1: #1 -0.236 inactive; #2 0.0227 inactive; #3 -0.892 inactive; #4 -0.12 inactive
HESX1: #1 -0.28 inactive; #2 -0.125 inactive; #3 0.24 inactive; #4 0.0535 inactive
NUP42: #1 -0.0536 inactive; #2 -0.176 inactive; #3 -0.0127 inactive; #4 -0.569 inactive
SYNJ1: #1 -0.195 inactive; #2 -0.0866 inactive; #3 0.22 inactive; #4 0.514 inactive
PTS: #1 0.0923 inactive; #2 0.0194 inactive; #3 -0.354 inactive
SOD3: #1 -0.447 inactive; #2 -0.119 inactive; #3 -0.313 inactive; #4 -0.126 inactive
CSF1R: #1 -0.203 inactive; #2 -0.379 inactive; #3 0.00433 inactive
ARHGDIB: #1 -0.0692 inactive; #2 -0.49 inactive; #3 -0.0568 inactive; #4 0.165 inactive
RARA: #1 -0.15 inactive; #2 -0.222 inactive; #3 -0.133 inactive; #4 -0.148 inactive
LGALS1: #1 -0.476 inactive; #2 -0.241 inactive; #3 0.262 inactive; #4 -0.799 inactive
DBF4: #1 0.103 inactive; #2 0.0349 inactive; #3 -0.0726 inactive; #4 -0.179 inactive
CNTFR: #1 -0.362 inactive; #2 0.37 inactive; #3 -0.307 inactive; #4 -0.261 inactive
MYO3B: #1 -0.321 inactive; #2 -0.223 inactive; #3 -0.364 inactive; #4 -0.326 inactive
CCL25: #1 -0.265 inactive; #2 0.0443 inactive; #3 -0.215 inactive; #4 -0.0176 inactive
SLC25A16: #1 -0.388 inactive; #2 -0.489 inactive; #3 0.306 inactive; #4 -0.624 inactive
OR2H2: #1 -0.411 inactive; #2 0.254 inactive; #3 0.195 inactive; #4 -0.123 inactive

Copied from the list:
Under “log2 vehicle/camptothecin viability”, HESX1 #2 has -0.125
CHKB #1, log2 vehicle/camptothecin viability → -0.00399
Entry of RARA #1 in “Call”: inactive
SLC25A16 #3, Call: inactive
Under “log2 vehicle/camptothecin viability”, CSF1R #1 is entered as -0.203
MYO3B #1, Call: inactive
